Assay results: patent US20230287363, “DNA POLYMERASE, APTAMER, WARM-START DNA POLYMERASE AND PREPARATION METHODS AND APPLICATION THEREOF” (Sun Yat-Sen University, published 2023)

Assays:
[1] = system: T1, G4P-Bst (G4P peptide fused to N-terminus of Bst-LF) (Homo sapiens / Geobacillus stearothermophilus); test: inhibition of the protein; settings: purified recombinant protein, protein details: His-tag, pCold-I, E. coli BL21, label: 5'-FAM (EMSA), dose not given here
T1 sequence: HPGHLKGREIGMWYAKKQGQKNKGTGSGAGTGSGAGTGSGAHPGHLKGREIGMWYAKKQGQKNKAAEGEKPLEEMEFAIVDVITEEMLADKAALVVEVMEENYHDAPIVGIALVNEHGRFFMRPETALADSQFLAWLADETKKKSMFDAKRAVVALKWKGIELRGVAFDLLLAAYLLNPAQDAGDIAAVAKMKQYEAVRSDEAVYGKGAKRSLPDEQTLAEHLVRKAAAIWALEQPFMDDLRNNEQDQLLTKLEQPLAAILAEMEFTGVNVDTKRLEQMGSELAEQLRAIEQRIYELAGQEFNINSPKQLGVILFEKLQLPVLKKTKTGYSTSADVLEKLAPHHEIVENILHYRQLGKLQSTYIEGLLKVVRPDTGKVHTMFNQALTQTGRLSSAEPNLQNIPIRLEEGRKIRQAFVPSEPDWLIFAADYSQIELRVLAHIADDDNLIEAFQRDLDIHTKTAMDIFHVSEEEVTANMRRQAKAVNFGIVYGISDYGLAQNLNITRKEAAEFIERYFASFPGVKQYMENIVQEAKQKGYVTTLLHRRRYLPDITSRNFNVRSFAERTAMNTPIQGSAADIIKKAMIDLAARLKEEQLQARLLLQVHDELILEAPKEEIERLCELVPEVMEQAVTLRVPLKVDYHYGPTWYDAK

[2] = system: T1, G4P-Bst (G4P peptide fused to N-terminus of Bst-LF) (Homo sapiens / Geobacillus stearothermophilus); test: EMSA; settings: purified recombinant protein, protein details: His-tag, pCold-I, E. coli BL21, label: 5'-FAM (EMSA)
[3] = system: T2, RHAU23-Bst (DHX36 RHAU23 peptide fused to N-terminus of Bst-LF) (Homo sapiens / Geobacillus stearothermophilus); test: inhibition of the protein; settings: purified recombinant protein, protein details: His-tag, pCold-I, E. coli BL21, folded or branched DNA, dose not given here
T2 sequence: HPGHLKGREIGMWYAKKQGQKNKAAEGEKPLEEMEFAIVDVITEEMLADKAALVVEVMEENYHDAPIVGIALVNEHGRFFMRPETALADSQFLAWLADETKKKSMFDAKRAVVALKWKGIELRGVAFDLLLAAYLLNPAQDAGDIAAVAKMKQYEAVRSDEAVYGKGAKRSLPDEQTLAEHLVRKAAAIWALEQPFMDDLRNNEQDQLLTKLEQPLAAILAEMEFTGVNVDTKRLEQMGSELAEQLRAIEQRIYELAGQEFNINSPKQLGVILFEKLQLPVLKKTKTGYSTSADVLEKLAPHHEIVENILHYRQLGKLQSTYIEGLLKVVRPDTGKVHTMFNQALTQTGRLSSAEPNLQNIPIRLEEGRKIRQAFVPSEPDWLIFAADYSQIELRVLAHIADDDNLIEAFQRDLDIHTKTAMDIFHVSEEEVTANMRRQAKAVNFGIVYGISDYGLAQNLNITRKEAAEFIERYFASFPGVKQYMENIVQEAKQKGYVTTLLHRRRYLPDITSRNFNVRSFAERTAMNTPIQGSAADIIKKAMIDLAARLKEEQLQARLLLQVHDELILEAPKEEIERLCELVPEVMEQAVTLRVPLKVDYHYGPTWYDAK

[4] = system: T2, RHAU23-Bst (DHX36 RHAU23 peptide fused to N-terminus of Bst-LF) (Homo sapiens / Geobacillus stearothermophilus); test: EMSA; settings: range over HG53, GH5, HG3; K+ buffer, 4 C; purified recombinant protein; protein details: His-tag, pCold-I, E. coli BL21; label: 5'-FAM (EMSA); folded or branched DNA
[5] = system: T3, Bst-LF (Bst DNA polymerase large fragment) (Geobacillus stearothermophilus); test: inhibition of the protein; settings: no modulation of polymerase activity; purified recombinant protein; protein details: His-tag, pCold-I, E. coli BL21; label: 5'-FAM (EMSA); folded or branched DNA; dose not given here
T3 sequence: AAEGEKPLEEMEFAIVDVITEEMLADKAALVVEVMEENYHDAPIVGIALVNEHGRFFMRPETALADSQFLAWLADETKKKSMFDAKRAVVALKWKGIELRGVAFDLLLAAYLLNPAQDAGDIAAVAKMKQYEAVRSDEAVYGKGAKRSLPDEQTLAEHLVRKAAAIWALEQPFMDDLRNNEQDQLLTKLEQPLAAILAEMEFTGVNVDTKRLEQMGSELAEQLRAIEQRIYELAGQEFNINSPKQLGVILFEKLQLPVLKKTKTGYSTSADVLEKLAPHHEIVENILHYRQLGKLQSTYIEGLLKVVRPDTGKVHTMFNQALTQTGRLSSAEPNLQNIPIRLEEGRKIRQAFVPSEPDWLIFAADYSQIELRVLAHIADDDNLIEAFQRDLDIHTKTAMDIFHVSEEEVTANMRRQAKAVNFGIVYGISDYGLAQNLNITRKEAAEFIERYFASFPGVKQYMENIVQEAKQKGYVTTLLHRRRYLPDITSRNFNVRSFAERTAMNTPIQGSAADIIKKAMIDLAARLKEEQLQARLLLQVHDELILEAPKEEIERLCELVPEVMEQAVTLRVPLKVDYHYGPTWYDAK

[6] = system: T3, Bst-LF (Bst DNA polymerase large fragment) (Geobacillus stearothermophilus); test: EMSA; settings: binding significantly reduced without G4-binding peptide; purified recombinant protein; protein details: His-tag, pCold-I, E. coli BL21; label: 5'-FAM (EMSA); folded or branched DNA
[7] = primer extension almost unaffected at 25 C or 65 C, folded or branched DNA
[8] = range over six G4 DNAs, K+ buffer, 4 C, folded or branched DNA
[9] = effective inhibition at 25 C, enzyme:aptamer 1:2, variant of HG53 (HG53-H8/T10)
[10] = strong inhibition at 25 C for at least 40 min, full recovery at 65 C, label: 5'-FAM (EMSA)
[11] = effective (loop 6 nt or more), 25 C, variant of HG53 (HG53-H8/T10)
[12] = ratio-dependent partial inhibition at 25 C, almost recovered at 65 C, folded or branched DNA
[13] = primer extension, activity almost completely restored at 65 C, label: 5'-FAM (EMSA)
[14] = almost complete inhibition at 25 C, still inhibited at 65 C, folded or branched DNA
[15] = inhibited at least 40 min at 25 C, 1:2, variant of HG53 (HG53-H8/T10)

GGGAGGGCGGCGGGGCAGGG [PDGFRB-core G4]
functional effect of the aptamer [1, 7]: active | binding result [2, 8]: binds

CAGACCAGAAGTGGTGGGTGGGTGGGATTTTTTTTTTACTGGTCTG [HG53-T1B1]
functional effect of the aptamer [3, 9]: active

CAGACCAGTTTTCTGGTCTGAAGTTTTGGTGGGTGGGTGGGAT [HG3]
functional effect of the aptamer [3, 10]: active | binding result [4]: binds

CAGACCAGAAGGGAGGGCGGCGGGGCATTGATTTTTTTTTTACTGGTCTG [HG53-PDGFR]
functional effect of the aptamer [3, 9]: active

CAGACCAGAAGTTTTGGTGGGTGGGTGGGATTTTTTTTACTGGTCTG [HG53-T8]
functional effect of the aptamer [3, 11]: active

CCTGAAGCAGACAGCTAGTGAATTCGGGAGGGCGGCGGGGCAGGGTACTTGCGTATAACTGTTCCATAGT [PDGFRB-Fs-G4]
functional effect of the aptamer [1, 12]: active | binding result [2, 8]: binds

CAGACCAGAAGGGCGGGCGCGAGGGAGGGATTTTTTTTTTACTGGTCTG [HG53-KIT]
functional effect of the aptamer [3, 9]: active

CCTGAAGCAGACAGCTAGTGAATTCGTTTTGGTGGGTGGGTGGGTACTTGCGTATAACTGTTCCATAGT / ACTATGGAACAGTTATACGCAAGTATTTTTTTTTTTTTTTTTTTTTGAATTCACTAGCTGTCTGCTTCAGG [T4B1-Fd-G4]
functional effect of the aptamer [3, 13]: active | functional effect of the aptamer [1, 14]: active | functional effect of the aptamer [5]: less active | binding result [2, 8]: binds | binding result [6]: binds more weakly

CCTGAAGCAGACAGCTAGTGAATTCGTTTTGGTGGGTGGGTGGGTACTTGCGTATAACTGTTCCATAGT [T4B1-Fs-G4]
functional effect of the aptamer [1, 12]: active | functional effect of the aptamer [5]: less active | binding result [2, 8]: binds | binding result [6]: binds more weakly

AAGTTTTGGTGGGTGGGTGGGATCAGACCAGTTTTCTGGTCTG [GH5]
functional effect of the aptamer [3, 10]: active | binding result [4]: binds

CAGACCAGAAGTTTTGGTGGGTGGGTGGGATTTTTTACTGGTCTG [HG53-T6]
functional effect of the aptamer [3, 11]: active

ACTATGGAACAGTTATACGCAAGTATTTTTTTTTTTTTTTTTTTTTGAATTCACTAGCTGTCTGCTTCAGG [non-G4 ssDNA]
functional effect of the aptamer ([1]; no modulation of polymerase activity, single-stranded DNA): less active | binding result ([2]; binding significantly reduced without G4, single-stranded DNA): binds more weakly

ACTATGGAACAGTTATACGCAAGTATTTTTTTTTTTTTTTTTTTTTGAATTCACTAGCTGTCTGCTTCAGG / TGATACCTTGTCAATATGCGTTCATAAAAAAAAAAAAAAAAAAAAACTTAAGTGATCGACAGACGAAGTCC [non-G4 dsDNA]
functional effect of the aptamer ([1]; no modulation of polymerase activity): less active | binding result ([2]; binding significantly reduced without G4): binds more weakly

CAGACCAGAAGTTTTAATAAATAAATAAAATTTTTTTTTTACTGGTCTG [HG53-mut-G4]
functional effect of the aptamer ([3]; G4 mutation: no inhibition, 25 C, variant of HG53 (HG53-H8/T10)): not active

CCTGAAGCAGACAGCTAGTGAATTCGGGAGGGCGGCGGGGCAGGGTACTTGCGTATAACTGTTCCATAGT / ACTATGGAACAGTTATACGCAAGTATTTTTTTTTTTTTTTTTTTTTGAATTCACTAGCTGTCTGCTTCAGG [PDGFRB-Fd-G4]
functional effect of the aptamer [3, 13]: active | functional effect of the aptamer [1, 14]: active | binding result [2, 8]: binds

CAGACCAGAAATTTTTTTTTTACTGGTCTG [HG53-non-G4]
functional effect of the aptamer ([3]; G4 deletion: no inhibition, 25 C, variant of HG53 (HG53-H8/T10)): not active

CAGACCAGAAGTTTTGGTGGGTGGGTGGGATTTTTTTTTTACTGGTCTG [HG53 (HG53-H8/T10)]
functional effect of the aptamer [3, 10]: active | binding result [4]: binds

GTTTTGGTGGGTGGGTGGG [T4B1-core-G4]
functional effect of the aptamer [1, 7]: active | binding result [2, 8]: binds

CAGACCAGAAGTTTTGGTGGGTGGGTGGGATTTTTTTTTTTTACTGGTCTG [HG53-T12]
functional effect of the aptamer [3, 11]: active

CAGACCAGAATTTTTGGTTGGTGGGTGGGATTTTTTTTTTACTGGTCTG [HG53-G12]
functional effect of the aptamer [3, 15]: active

CAGACCAGAAGGGGCGGGGCGCGGGGCGGGGATTTTTTTTTTACTGGTCTG [HG53-CSTB]
functional effect of the aptamer [3, 9]: active

CAGACCAGAATTTTTGGTGGGTGGGTGGGATTTTTTTTTTACTGGTCTG [HG53-GVBQ1]
functional effect of the aptamer ([3]; inhibited at least 40 min at 25 C, greatly inhibited below 30 C, variant of HG53 (HG53-H8/T10)): active

CAGACCAGAATTTTTGGGTGGTGGGTGGGATTTTTTTTTTACTGGTCTG [HG53-GVBQ2]
functional effect of the aptamer [3, 15]: active

For some of these results: Negatives hold for the conditions tested. Where a protein sequence is shown, tags need not be part of it. For some of these results: Weaker means in comparison with the reference protein, sequence or condition of that experiment. For some of these results: The exact form of at least one protein or probe is not confirmed.
